Reference: the supplement of paper PMC10849652
Some of the results follow. Residues, ends and D or L forms follow the SMILES beside them. *: point of attachment. Cbz = O=C(OCc1ccccc1)*

Chains of the proteins cited; added tags and fusions are not shown. Lines headed by an entry give the natural chain unless they say otherwise; changes in a name come on top.
UniProt Q99805: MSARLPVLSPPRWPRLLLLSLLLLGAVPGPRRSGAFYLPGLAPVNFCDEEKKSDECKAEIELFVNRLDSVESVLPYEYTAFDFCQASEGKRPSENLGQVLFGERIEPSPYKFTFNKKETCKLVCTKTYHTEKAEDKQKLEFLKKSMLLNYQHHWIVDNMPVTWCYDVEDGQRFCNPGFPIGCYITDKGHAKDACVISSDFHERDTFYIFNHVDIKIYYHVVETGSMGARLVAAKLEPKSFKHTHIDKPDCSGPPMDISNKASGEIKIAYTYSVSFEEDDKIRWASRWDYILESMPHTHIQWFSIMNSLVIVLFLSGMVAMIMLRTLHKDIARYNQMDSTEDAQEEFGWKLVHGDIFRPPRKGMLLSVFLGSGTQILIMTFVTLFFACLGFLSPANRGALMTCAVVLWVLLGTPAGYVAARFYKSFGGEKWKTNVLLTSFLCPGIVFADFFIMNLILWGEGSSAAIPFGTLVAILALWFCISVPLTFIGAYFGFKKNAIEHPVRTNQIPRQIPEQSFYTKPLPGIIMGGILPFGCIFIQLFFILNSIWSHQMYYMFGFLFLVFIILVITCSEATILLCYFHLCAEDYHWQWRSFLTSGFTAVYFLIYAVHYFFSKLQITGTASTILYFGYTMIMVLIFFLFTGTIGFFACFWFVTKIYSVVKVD
UniProt A0PJW6: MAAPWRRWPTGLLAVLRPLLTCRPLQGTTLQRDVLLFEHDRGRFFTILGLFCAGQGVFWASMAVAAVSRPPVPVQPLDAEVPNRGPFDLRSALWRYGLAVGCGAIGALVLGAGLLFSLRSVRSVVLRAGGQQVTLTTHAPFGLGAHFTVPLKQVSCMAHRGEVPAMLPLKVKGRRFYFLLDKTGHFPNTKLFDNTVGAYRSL
UniProt P82094: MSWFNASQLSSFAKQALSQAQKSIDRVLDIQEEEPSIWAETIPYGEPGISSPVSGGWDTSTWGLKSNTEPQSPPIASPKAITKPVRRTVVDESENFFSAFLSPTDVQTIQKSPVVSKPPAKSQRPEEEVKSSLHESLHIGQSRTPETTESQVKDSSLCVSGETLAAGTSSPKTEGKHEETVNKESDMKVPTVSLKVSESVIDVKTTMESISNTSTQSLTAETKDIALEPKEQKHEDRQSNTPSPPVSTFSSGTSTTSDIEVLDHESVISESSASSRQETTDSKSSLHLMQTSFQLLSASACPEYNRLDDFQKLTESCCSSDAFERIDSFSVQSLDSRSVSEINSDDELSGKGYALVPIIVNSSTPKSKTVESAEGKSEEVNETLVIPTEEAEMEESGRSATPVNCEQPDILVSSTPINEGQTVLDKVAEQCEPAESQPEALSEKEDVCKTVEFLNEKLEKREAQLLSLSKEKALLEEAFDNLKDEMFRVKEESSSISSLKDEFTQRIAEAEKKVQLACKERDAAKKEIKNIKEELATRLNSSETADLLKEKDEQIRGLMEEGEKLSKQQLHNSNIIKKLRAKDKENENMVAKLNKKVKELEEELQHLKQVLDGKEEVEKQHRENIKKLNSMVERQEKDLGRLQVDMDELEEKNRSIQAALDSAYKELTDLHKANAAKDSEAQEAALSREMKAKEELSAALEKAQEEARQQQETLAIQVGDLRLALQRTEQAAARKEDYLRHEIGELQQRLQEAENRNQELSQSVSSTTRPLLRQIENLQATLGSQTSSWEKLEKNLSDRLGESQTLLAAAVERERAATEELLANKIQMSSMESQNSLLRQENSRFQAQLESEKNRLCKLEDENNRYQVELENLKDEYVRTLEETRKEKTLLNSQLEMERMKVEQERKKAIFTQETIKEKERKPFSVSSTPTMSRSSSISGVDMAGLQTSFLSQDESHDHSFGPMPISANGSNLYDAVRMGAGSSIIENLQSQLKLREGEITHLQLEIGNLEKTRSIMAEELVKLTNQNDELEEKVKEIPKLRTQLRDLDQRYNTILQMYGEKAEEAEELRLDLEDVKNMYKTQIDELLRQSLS
UniProt Q53S58: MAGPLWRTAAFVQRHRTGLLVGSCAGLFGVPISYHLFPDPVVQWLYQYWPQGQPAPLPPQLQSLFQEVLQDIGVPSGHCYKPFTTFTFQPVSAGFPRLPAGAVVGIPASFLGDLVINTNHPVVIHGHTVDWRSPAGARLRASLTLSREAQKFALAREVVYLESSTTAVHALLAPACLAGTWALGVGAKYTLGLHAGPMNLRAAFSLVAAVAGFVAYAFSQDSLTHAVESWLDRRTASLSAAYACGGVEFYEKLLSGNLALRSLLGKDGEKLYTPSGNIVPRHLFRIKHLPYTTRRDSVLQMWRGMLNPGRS
UniProt P49755: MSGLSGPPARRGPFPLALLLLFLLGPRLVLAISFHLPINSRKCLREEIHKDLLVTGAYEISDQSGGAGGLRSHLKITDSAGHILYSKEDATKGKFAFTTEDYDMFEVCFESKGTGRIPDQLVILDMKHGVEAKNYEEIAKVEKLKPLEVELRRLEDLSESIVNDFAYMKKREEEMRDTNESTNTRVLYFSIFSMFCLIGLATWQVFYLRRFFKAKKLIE
UniProt Q5T3F8: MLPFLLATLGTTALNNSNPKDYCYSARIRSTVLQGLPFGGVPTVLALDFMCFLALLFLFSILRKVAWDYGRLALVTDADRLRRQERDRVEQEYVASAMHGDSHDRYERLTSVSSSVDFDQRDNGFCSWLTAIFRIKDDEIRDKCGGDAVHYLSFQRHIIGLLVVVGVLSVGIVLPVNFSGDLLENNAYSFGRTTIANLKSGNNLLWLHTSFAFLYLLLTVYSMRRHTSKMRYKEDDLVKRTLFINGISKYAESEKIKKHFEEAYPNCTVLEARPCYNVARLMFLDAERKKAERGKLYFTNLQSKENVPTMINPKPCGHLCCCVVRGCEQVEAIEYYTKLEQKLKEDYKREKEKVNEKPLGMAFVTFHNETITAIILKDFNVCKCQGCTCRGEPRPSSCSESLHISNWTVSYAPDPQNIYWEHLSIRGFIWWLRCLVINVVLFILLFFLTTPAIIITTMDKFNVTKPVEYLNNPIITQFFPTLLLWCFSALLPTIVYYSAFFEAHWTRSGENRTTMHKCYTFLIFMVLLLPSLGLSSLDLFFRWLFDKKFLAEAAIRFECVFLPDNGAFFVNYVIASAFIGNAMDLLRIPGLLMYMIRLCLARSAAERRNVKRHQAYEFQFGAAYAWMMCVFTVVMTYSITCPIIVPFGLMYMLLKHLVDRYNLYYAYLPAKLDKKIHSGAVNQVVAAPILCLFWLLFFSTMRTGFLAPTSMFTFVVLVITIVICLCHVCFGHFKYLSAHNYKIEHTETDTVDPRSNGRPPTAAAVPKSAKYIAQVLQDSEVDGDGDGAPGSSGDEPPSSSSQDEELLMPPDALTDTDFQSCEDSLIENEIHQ
UniProt P57088: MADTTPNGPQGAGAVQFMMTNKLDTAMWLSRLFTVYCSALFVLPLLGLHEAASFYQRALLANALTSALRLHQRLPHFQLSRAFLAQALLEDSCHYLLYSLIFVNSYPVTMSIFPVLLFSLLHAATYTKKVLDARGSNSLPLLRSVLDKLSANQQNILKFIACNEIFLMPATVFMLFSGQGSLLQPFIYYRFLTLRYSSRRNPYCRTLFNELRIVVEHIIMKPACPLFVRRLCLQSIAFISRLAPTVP
UniProt Q15363: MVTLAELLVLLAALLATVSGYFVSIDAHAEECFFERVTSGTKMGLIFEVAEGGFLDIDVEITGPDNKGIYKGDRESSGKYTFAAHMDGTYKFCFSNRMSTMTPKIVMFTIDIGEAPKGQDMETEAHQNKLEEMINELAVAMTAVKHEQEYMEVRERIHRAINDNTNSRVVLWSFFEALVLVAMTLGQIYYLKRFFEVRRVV
UniProt P21580: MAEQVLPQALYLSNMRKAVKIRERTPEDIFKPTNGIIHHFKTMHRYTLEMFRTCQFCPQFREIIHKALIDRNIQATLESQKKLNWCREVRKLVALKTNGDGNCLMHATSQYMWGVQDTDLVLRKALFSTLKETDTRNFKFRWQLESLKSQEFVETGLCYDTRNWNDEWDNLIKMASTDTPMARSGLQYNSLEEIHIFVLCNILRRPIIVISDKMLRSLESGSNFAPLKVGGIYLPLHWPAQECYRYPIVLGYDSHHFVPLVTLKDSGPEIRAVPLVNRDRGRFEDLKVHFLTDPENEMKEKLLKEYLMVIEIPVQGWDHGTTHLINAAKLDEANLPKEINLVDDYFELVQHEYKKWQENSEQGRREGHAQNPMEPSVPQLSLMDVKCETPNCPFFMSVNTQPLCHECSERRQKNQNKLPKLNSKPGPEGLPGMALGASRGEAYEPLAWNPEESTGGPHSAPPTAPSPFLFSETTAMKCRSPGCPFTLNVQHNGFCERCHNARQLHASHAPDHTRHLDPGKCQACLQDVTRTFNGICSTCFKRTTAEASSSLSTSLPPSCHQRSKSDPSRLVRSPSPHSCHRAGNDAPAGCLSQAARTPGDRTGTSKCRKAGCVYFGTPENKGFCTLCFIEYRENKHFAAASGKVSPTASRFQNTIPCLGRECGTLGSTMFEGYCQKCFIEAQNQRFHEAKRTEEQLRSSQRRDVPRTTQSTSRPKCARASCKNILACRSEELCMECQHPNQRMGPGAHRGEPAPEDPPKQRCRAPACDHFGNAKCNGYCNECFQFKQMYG
UniProt Q5BJD5: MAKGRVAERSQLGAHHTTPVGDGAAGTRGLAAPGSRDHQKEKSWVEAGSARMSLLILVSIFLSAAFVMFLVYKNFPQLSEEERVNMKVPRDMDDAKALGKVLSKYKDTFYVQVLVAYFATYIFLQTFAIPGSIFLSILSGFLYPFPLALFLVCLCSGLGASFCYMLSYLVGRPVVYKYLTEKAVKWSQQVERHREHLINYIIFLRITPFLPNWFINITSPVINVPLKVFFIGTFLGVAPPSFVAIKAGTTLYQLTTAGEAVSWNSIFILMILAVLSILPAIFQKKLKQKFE
UniProt Q96K49: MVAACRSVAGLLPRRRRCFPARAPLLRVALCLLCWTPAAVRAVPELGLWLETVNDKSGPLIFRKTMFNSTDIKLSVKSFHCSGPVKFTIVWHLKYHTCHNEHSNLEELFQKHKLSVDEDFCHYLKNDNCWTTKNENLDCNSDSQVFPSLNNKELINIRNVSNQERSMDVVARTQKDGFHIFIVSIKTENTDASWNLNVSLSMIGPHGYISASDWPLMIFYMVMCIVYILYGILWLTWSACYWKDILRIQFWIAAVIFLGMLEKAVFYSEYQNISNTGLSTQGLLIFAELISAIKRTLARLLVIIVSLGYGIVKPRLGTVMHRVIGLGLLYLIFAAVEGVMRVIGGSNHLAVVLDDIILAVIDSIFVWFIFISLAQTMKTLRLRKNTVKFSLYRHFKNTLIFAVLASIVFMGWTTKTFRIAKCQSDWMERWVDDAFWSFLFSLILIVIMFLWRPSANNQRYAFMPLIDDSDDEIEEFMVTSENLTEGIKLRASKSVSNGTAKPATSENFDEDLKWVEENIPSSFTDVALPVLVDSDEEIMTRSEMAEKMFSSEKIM
UniProt Q6ZXV5: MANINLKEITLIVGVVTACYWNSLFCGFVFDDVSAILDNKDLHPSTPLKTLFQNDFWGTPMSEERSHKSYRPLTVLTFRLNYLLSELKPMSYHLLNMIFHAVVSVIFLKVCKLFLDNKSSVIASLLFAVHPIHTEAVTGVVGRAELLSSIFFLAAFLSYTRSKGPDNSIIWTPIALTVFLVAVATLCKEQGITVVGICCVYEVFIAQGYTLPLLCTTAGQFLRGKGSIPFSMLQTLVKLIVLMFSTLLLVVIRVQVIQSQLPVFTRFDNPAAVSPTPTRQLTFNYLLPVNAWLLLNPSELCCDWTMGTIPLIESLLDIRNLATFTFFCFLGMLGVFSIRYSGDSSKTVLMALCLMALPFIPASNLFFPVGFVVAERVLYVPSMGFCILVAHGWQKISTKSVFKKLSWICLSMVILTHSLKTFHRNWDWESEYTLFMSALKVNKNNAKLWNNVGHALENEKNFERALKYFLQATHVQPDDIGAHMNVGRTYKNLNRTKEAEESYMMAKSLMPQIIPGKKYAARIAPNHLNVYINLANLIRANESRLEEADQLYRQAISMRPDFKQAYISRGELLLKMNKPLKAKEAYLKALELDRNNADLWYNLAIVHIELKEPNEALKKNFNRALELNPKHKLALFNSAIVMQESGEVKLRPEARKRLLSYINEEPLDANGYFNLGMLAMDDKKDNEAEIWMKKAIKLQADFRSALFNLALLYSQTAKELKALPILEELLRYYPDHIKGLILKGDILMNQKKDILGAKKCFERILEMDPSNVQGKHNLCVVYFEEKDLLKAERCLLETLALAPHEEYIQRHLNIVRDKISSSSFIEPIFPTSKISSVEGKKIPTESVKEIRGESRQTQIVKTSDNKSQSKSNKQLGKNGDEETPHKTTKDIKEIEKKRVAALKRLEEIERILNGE
UniProt Q9BVK6: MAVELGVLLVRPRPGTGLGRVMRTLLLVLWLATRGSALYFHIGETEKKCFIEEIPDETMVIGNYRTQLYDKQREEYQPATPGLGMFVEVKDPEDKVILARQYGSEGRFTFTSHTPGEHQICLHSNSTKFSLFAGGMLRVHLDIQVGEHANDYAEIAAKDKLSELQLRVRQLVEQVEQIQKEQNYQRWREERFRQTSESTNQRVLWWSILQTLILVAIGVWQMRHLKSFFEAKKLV

Assays:
Experiment in all cases: log2 fold change, soluble protein after heating vs DMSO (PISA); higher = thermal stabilisation; K562 cells, 10 uM, 30 min; active = over 0.2 and 3.5 SD of the protein, either way, in both replicates (recomputed)
IRAK-1-4 Inhibitor I = compound: C1COCCN1CCN2C3=CC=CC=C3N=C2NC(=O)C4=CC(=CC=C4)[N+](=O)[O-] [IRAK-1-4 Inhibitor I]
Summary of the method: (§1)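 For each measurement, 10 μM compound was applied for 30 min to K562 cells at 2×10^6 cells/mL. Aliquots were heated for 3 min across 48°C-58°C, pooled, and extracted in PBS with 0.5% NP-40 at 4°C; the supernatant after 21,000xg for 90 min was soluble protein. This was quantified by TMTpro 16plex LC-MS/MS with channel sums equalised, and thermal stability was reported relative to control samples from duplicates, on a log2 fold-change scale.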

ibrutinib = compound: C=CC(=O)N1CCC[C@@H](n2nc(-c3ccc(Oc4ccccc4)cc3)c3c(N)ncnc32)C1 [ibrutinib]
Summary of the method: as §1

[1] = compound: CC(=O)c1cnc2ccc(-c3cc(Cl)c(O)c(Cl)c3)nc2c1N[C@H]1CC[C@H](CN(C)C)CC1
Summary of the method: as §1

ralimetinib = compound: CC(C)(C)Cn1c(N)nc2ccc(-c3[nH]c(C(C)(C)C)nc3-c3ccc(F)cc3)nc21 [ralimetinib]
Summary of the method: as §1

[2] = compound: CC(C)(O)CC(=O)NCCn1ccc2ncnc(Nc3ccc(Oc4cccc(C(F)(F)F)c4)c(Cl)c3)c21
Summary of the method: as §1

[3] = compound: CC(C)C1=C2N=C(C=C(N2N=C1)NCC3=CC=CC=C3)NCCCCCCN
Summary of the method: as §1

[4] = compound: CC(C)C[C@@H](C=O)NC(=O)[C@H](CC(C)C)NC(=O)[C@H](CC(C)C)NC(=O)OCc1ccccc1
Summary of the method: as §1

pinometostat = compound: CC(C)N(C[C@H]1O[C@@H](n2cnc3c(N)ncnc32)[C@H](O)[C@@H]1O)[C@H]1C[C@@H](CCc2nc3cc(C(C)(C)C)ccc3[nH]2)C1 [pinometostat]
Summary of the method: as §1

[5] = compound: CC1=C(C2=C(C=C1)C(=O)C3=CC=CC=C3N2CCCN)C
Summary of the method: as §1

[6] = compound: CC1=C(C=C(C=C1)NC(=O)C2=CC(=CC=C2)C(C)(C)C#N)NC3=CC4=C(C=C3)N=CN(C4=O)C
Summary of the method: as §1

[7] = compound: CC1=C(C=C(C=C1)NC(=O)C2=CC(=CC=C2)N(C)C)NC(=O)C3=CC=C(C=C3)O
Summary of the method: as §1

[8] = compound: CC1=CC=C(C=C1)SC2=C3C=C(SC3=CN=C2)C(=O)N
Summary of the method: as §1

[9] = compound: CC1=NC(=CC=C1)C2=C(N=C(N2)C(C)(C)C)C3=CC4=NC=CN=C4C=C3
Summary of the method: as §1

Nexturastat A = compound: CCCCN(Cc1ccc(C(=O)NO)cc1)C(=O)Nc1ccccc1 [Nexturastat A]
Summary of the method: as §1

vemurafenib = compound: CCCS(=O)(=O)Nc1ccc(F)c(C(=O)c2c[nH]c3ncc(-c4ccc(Cl)cc4)cc23)c1F [vemurafenib]
Summary of the method: as §1

[10] = compound: CCCS(=O)(=O)Nc1ccc(F)c(C(=O)c2c[nH]c3ncc(Cl)cc23)c1F
Summary of the method: as §1

[11] = compound: CCCc1cc(C)[nH]c(=O)c1CNC(=O)c1cc(-c2ccnc(N3CCN(C)CC3)c2)cc2c1cnn2C(C)C
Summary of the method: as §1

givinostat = compound: CCN(CC)Cc1ccc2cc(COC(=O)Nc3ccc(C(=O)NO)cc3)ccc2c1 [givinostat]
Summary of the method: as §1

barasertib = compound: CCN(CCCOc1ccc2c(Nc3cc(CC(=O)Nc4cccc(F)c4)[nH]n3)ncnc2c1)CCOP(=O)(O)O [barasertib]
Summary of the method: as §1

[12] = compound: CC1=C(C(CC(=O)N1)C2=CC=C(C=C2)C(F)(F)F)C(=O)NC3=C(C=C4C(=C3)C=NN4)F
Summary of the method: as §1

Measured: log2 fold change

TM9SF2 (UniProt Q99805)
active: [3] -0.436
inactive: IRAK-1-4 Inhibitor I 0.06 | ibrutinib 0.01 | [1] -0.04 | ralimetinib -0.049 | [2] 0.021 | [4] -0.012 | pinometostat -0.003 | [5] 0.027 | [6] 0.056 | [7] -0.009 | [8] -0.005 | [9] -0.001 | Nexturastat A -0.039 | vemurafenib -0.03 | [10] 0.018 | [11] -0.004 | givinostat -0.019 | barasertib 0.035

TMEM223 (UniProt A0PJW6)
inactive: IRAK-1-4 Inhibitor I 0.039 | ibrutinib 0.006 | [1] -0.101 | ralimetinib -0.009 | [2] 0.114 | [3] -0.063 | [4] 0 | pinometostat -0.019 | [5] 0.042 | [6] 0.034 | [7] -0.001 | [8] -0.026 | [9] 0.058 | Nexturastat A -0.13 | vemurafenib 0.084 | [10] 0.055 | [11] -0.128 | givinostat 0.002 | barasertib 0.041

TMF1 (UniProt P82094)
inactive: IRAK-1-4 Inhibitor I 0.025 | ibrutinib 0.007 | [1] 0.009 | ralimetinib -0.029 | [2] 0.035 | [3] 0.058 | [4] 0.022 | pinometostat -0.021 | [12] 0 | [5] -0.037 | [6] -0.011 | [7] 0.031 | [8] 0.013 | [9] 0.004 | Nexturastat A -0.002 | vemurafenib -0.024 | [10] -0.013 | [11] -0.077 | givinostat -0.031 | barasertib -0.003

TMEM177 (UniProt Q53S58)
inactive: IRAK-1-4 Inhibitor I 0.06 | ibrutinib 0.079 | [1] 0.007 | ralimetinib -0.068 | [2] -0.023 | [3] -0.131 | [4] 0.045 | pinometostat -0.02 | [5] 0.028 | [6] 0.043 | [7] 0.045 | [8] -0.008 | [9] 0.048 | Nexturastat A -0.092 | vemurafenib 0.05 | [10] 0.05 | [11] -0.038 | givinostat 0.005 | barasertib -0.019

TMEM263 (UniProt Q8WUH6)
active: [3] -1.03
inactive: IRAK-1-4 Inhibitor I 0.083 | ibrutinib 0 | [1] 0.026 | ralimetinib -0.092 | [2] -0.303 | [4] 0.029 | pinometostat 0.001 | [5] 0.037 | [6] -0.009 | [7] -0.015 | [8] 0.117 | [9] 0.059 | Nexturastat A -0.02 | vemurafenib -0.051 | [10] 0.128 | [11] -0.138 | givinostat -0.015 | barasertib 0.054

TMED10 (UniProt P49755)
inactive: IRAK-1-4 Inhibitor I 0.035 | ibrutinib 0.003 | [1] 0.001 | ralimetinib 0.022 | [2] -0.053 | [3] -0.008 | [4] -0.019 | pinometostat 0.006 | [12] -0.018 | [5] 0.011 | [6] -0.021 | [7] -0.002 | [8] -0.009 | [9] -0.008 | Nexturastat A -0.051 | vemurafenib 0.042 | [10] -0.016 | [11] 0.005 | givinostat 0.011 | barasertib -0.01

TMEM63B (UniProt Q5T3F8)
inactive: IRAK-1-4 Inhibitor I -0.01 | ibrutinib -0.055 | [1] -0.002 | ralimetinib -0.034 | [2] 0.011 | [3] -0.157 | [4] -0.01 | pinometostat 0.041 | [5] 0.054 | [6] 0.095 | [7] 0.014 | [8] 0.006 | [9] 0.004 | Nexturastat A 0.051 | vemurafenib 0.009 | [10] -0.011 | [11] -0.044 | givinostat 0.014 | barasertib -0.038

TNFRSF10A (UniProt O00220)
inactive: IRAK-1-4 Inhibitor I 0.002 | ibrutinib 0.034 | [1] -0.064 | ralimetinib -0.072 | [2] -0.073 | [3] 0.043 | [4] 0.078 | pinometostat -0.002 | [5] 0.021 | [6] 0.006 | [7] 0.035 | [8] 0.016 | [9] -0.015 | Nexturastat A 0.089 | vemurafenib -0.073 | [10] -0.044 | [11] 0.004 | givinostat -0.042 | barasertib 0.016

TMEM33 (UniProt P57088)
inactive: IRAK-1-4 Inhibitor I 0.016 | ibrutinib 0.04 | [1] -0.007 | ralimetinib -0.021 | [2] -0.044 | [3] -0.011 | [4] -0.091 | pinometostat -0.028 | [12] -0.029 | [5] 0.05 | [6] 0.067 | [7] -0.045 | [8] 0.014 | [9] -0.001 | Nexturastat A -0.077 | vemurafenib 0.03 | [10] 0.009 | [11] -0.036 | givinostat 0.021 | barasertib -0.052

TMED2 (UniProt Q15363)
inactive: IRAK-1-4 Inhibitor I 0.002 | ibrutinib 0.004 | [1] 0.026 | ralimetinib 0.006 | [2] -0.053 | [3] -0.077 | [4] -0.055 | pinometostat -0.053 | [12] -0.023 | [5] 0.023 | [6] 0.004 | [7] 0.001 | [8] 0.037 | [9] 0.015 | Nexturastat A -0.066 | vemurafenib 0.054 | [10] 0.078 | [11] -0.003 | givinostat 0.009 | barasertib -0.015

TNFAIP3 (UniProt P21580)
inactive: IRAK-1-4 Inhibitor I 0.055 | ibrutinib 0.167 | [1] -0.213 | ralimetinib -0.068 | [2] 0.083 | [3] -0.056 | [4] 0.064 | pinometostat 0.048 | [12] -0.206 | [7] 0.106 | [8] 0.006 | [9] -0.057 | Nexturastat A -0.001 | vemurafenib 0.028 | [10] 0.134 | [11] 0.016 | givinostat 0.021 | barasertib -0.155

TMEM214 (UniProt Q6NUQ4)
inactive: IRAK-1-4 Inhibitor I -0.076 | ibrutinib -0.063 | [1] 0.028 | ralimetinib -0.03 | [2] 0.019 | [3] 0.066 | [4] 0.044 | pinometostat 0.073 | [5] 0.074 | [6] -0.038 | [7] -0.054 | [8] 0.023 | [9] 0.007 | Nexturastat A 0.062 | vemurafenib 0.046 | [10] 0.065 | [11] 0 | givinostat 0.021 | barasertib -0.03

TMEM41B (UniProt Q5BJD5)
inactive: IRAK-1-4 Inhibitor I -0.098 | ibrutinib -0.017 | [1] -0.065 | ralimetinib -0.016 | [2] 0.133 | [3] -0.194 | [4] -0.077 | pinometostat -0.068 | [12] 0.013 | [5] 0.049 | [7] -0.079 | [8] -0.017 | [9] 0.058 | Nexturastat A -0.087 | vemurafenib 0.004 | [10] -0.083 | [11] -0.074 | givinostat 0.042 | barasertib -0.049

TMEM189-UBE2V1 (UniProt I3L0A0)
inactive: IRAK-1-4 Inhibitor I 0.048 | ibrutinib 0.022 | [1] -0.022 | ralimetinib 0.006 | [2] -0.024 | [3] 0.031 | [4] -0.028 | pinometostat -0.046 | [5] 0.037 | [6] -0.067 | [7] 0.017 | [8] 0.006 | [9] -0.003 | Nexturastat A -0.042 | vemurafenib -0.005 | [10] -0.056 | [11] -0.182 | givinostat 0.024 | barasertib -0.054

TMEM87B (UniProt Q96K49)
active: [3] -0.39
inactive: IRAK-1-4 Inhibitor I 0.139 | ibrutinib -0.084 | [1] -0.046 | ralimetinib -0.086 | [2] -0.204 | [4] -0.007 | pinometostat 0.065 | [5] 0.029 | [6] -0.018 | [7] -0.013 | [8] 0.112 | [9] -0.008 | Nexturastat A -0.059 | vemurafenib -0.048 | [10] -0.028 | [11] 0.008 | givinostat -0.063 | barasertib 0.048

Reprinted at random: two records from the list.
TMEM263 (UniProt Q8WUH6)
active: [3] -1.03
inactive: IRAK-1-4 Inhibitor I 0.083 | ibrutinib 0 | [1] 0.026 | ralimetinib -0.092 | [2] -0.303 | [4] 0.029 | pinometostat 0.001 | [5] 0.037 | [6] -0.009 | [7] -0.015 | [8] 0.117 | [9] 0.059 | Nexturastat A -0.02 | vemurafenib -0.051 | [10] 0.128 | [11] -0.138 | givinostat -0.015 | barasertib 0.054

TMED2 (UniProt Q15363)
inactive: IRAK-1-4 Inhibitor I 0.002 | ibrutinib 0.004 | [1] 0.026 | ralimetinib 0.006 | [2] -0.053 | [3] -0.077 | [4] -0.055 | pinometostat -0.053 | [12] -0.023 | [5] 0.023 | [6] 0.004 | [7] 0.001 | [8] 0.037 | [9] 0.015 | Nexturastat A -0.066 | vemurafenib 0.054 | [10] 0.078 | [11] -0.003 | givinostat 0.009 | barasertib -0.015

Later entries

TMTC3 (UniProt Q6ZXV5)
inactive: IRAK-1-4 Inhibitor I 0.007 | ibrutinib -0.033 | [1] -0.007 | ralimetinib 0 | [2] 0.022 | [3] -0.218 | [4] 0.028 | pinometostat -0.019 | [5] 0.018 | [6] -0.05 | [7] -0.009 | [8] 0.019 | [9] 0.007 | Nexturastat A 0.067 | vemurafenib -0.052 | [10] 0.013 | [11] -0.013 | givinostat -0.032 | barasertib 0.032

TMED9 (UniProt Q9BVK6)
inactive: IRAK-1-4 Inhibitor I 0.052 | ibrutinib 0 | [1] 0.047 | ralimetinib 0.028 | [2] -0.035 | [3] -0.03 | [4] -0.048 | pinometostat -0.023 | [12] -0.075 | [5] 0.008 | [6] -0.022 | [7] 0.004 | [8] 0.007 | [9] -0.005 | Nexturastat A -0.084 | vemurafenib -0.021 | [10] 0.04 | [11] 0.011 | givinostat 0.01 | barasertib 0.031
